# Assay results from paper PMC3349853.
# By UniProt entry, the sequences of proteins in these tests, tags left out. Where a name states a change or a piece, a line headed by the entry shows the natural chain unless it says otherwise.
# UniProt P0CAP1: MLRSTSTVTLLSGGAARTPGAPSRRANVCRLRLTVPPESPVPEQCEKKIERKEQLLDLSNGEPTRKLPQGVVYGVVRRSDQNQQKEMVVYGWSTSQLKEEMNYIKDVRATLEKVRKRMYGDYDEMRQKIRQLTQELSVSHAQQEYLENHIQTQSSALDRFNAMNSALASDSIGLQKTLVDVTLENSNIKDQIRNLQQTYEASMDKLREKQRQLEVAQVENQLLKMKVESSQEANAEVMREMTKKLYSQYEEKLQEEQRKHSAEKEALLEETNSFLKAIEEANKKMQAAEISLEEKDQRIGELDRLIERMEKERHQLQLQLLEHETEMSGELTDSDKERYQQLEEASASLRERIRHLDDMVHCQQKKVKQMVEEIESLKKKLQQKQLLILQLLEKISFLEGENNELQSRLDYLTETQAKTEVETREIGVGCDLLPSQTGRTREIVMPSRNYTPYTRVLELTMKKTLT
# UniProt P15924: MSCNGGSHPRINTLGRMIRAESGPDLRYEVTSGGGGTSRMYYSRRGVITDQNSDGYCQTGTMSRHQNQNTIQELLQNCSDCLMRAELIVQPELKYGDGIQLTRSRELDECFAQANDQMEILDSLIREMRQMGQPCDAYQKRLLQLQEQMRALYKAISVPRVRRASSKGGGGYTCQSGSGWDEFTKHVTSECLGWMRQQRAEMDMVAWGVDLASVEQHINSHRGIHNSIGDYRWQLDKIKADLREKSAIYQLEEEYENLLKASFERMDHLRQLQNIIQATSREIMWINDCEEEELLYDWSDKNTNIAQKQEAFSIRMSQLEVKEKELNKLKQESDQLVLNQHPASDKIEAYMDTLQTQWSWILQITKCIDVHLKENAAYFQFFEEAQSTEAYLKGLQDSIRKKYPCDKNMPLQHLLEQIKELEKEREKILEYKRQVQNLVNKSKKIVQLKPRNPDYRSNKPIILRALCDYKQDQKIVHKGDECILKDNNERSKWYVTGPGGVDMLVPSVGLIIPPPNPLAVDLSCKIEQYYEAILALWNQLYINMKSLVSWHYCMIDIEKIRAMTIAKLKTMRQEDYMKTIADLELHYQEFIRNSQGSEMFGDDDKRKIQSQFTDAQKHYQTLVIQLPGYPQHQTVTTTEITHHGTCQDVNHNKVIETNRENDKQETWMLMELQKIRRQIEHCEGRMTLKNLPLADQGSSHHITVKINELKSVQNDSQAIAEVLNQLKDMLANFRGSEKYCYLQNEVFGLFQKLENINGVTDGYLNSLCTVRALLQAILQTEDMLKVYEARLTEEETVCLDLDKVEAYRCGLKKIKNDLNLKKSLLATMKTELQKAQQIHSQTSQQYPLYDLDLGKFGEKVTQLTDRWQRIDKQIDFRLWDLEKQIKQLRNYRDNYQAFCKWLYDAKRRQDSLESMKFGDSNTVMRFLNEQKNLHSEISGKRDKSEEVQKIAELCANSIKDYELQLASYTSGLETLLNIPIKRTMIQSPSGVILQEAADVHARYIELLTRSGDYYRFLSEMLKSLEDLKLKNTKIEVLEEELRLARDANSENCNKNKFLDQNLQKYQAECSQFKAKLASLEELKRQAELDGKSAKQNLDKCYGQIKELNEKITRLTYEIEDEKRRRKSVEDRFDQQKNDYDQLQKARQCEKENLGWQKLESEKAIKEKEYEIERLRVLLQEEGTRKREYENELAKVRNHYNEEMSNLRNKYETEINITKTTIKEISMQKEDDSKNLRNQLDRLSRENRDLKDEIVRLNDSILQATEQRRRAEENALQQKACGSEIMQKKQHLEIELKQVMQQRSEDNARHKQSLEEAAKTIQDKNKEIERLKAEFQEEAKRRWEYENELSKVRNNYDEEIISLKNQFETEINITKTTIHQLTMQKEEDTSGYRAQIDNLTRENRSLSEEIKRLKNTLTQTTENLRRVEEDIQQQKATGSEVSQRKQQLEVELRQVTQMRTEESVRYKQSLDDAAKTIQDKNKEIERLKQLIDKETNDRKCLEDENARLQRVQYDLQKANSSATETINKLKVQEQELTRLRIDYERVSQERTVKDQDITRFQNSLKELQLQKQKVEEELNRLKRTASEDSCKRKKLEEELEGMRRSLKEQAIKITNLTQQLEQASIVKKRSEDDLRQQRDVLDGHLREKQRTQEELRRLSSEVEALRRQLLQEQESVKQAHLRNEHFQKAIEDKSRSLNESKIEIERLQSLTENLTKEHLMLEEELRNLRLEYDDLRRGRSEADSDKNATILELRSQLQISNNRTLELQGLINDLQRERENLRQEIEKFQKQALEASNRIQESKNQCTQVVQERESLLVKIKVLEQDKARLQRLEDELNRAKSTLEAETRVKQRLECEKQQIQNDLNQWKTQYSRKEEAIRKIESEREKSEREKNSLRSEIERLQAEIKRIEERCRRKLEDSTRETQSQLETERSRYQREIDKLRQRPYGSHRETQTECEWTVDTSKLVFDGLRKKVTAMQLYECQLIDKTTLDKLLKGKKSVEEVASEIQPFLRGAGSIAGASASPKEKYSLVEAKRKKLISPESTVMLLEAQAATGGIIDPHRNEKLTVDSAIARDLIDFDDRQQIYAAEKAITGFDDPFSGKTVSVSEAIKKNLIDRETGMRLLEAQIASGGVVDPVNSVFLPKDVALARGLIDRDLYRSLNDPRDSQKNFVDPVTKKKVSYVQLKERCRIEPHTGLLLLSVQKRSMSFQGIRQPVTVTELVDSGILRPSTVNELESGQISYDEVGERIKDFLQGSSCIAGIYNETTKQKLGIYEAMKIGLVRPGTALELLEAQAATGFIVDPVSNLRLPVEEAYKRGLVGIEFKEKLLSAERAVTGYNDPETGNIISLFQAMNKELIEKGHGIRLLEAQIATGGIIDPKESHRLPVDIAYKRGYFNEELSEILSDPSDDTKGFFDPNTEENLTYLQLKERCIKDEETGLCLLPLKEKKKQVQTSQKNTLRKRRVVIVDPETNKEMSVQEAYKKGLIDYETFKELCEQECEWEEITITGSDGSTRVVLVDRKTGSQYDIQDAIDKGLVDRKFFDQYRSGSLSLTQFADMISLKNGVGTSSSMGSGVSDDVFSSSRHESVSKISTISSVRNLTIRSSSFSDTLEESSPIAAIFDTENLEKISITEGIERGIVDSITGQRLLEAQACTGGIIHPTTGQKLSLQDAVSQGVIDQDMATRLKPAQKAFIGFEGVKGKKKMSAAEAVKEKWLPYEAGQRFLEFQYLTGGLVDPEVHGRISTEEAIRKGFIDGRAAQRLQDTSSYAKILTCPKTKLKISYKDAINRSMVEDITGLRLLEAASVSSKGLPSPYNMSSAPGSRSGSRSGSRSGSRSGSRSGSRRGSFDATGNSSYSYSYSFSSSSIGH
# UniProt Q07157: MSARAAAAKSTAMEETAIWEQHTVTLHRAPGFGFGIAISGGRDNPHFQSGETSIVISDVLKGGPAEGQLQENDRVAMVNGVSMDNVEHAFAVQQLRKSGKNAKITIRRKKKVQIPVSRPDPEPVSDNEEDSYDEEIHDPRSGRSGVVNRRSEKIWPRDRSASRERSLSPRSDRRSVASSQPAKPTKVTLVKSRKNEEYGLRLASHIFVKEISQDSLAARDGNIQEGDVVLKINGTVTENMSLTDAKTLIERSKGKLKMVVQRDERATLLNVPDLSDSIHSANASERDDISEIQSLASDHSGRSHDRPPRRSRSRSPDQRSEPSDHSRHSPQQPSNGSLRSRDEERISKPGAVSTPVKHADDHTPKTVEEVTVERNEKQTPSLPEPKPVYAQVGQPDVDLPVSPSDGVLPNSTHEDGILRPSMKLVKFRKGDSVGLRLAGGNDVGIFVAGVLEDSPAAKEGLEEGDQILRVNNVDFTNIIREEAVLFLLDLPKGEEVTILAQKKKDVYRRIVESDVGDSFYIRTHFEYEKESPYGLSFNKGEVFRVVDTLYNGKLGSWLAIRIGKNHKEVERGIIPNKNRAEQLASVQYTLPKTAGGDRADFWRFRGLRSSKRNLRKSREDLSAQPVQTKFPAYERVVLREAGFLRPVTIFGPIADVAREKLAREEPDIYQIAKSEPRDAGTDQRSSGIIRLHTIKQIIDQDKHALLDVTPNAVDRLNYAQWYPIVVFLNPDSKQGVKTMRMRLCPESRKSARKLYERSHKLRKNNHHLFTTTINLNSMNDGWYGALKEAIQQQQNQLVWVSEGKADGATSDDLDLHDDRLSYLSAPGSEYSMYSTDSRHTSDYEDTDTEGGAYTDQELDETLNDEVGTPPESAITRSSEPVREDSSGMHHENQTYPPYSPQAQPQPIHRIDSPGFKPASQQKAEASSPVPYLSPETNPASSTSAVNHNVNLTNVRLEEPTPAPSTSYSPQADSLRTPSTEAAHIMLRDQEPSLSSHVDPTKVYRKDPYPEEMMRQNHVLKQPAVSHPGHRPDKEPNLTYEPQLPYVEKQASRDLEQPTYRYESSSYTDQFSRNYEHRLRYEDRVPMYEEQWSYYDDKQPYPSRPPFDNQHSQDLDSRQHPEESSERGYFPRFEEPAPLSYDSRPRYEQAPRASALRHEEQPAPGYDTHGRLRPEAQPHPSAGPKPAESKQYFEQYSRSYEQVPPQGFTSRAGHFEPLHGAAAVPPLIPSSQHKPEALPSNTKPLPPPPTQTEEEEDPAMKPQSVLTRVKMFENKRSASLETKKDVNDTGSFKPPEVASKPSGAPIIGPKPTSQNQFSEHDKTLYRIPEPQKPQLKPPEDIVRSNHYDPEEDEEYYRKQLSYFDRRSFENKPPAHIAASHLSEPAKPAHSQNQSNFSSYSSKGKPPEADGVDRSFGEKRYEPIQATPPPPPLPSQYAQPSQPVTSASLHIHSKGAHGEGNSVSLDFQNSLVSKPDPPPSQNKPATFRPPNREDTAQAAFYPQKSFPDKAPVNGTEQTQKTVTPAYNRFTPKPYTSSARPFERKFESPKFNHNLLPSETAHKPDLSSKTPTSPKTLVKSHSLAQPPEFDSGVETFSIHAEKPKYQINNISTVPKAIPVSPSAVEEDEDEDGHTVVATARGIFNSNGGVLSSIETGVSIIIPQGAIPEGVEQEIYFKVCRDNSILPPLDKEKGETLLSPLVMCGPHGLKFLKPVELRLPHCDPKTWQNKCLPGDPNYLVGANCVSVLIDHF
# Results are given in words; binding and its absence hold for the method and conditions named. In cells and extracts the contact can be indirect. A result given as binding can be weak or reduced; the word gives no strength.
# B1: plakophilin-2 (protein, UniProt Q99959 1-881)
# chain: MAAPGAPAEYGYIRTVLGQQILGQLDSSSLALPSEAKLKLAGSSGRGGQTVKSLRIQEQVQQTLARKGRSSVGNGNLHRTSSVPEYVYNLHLVENDFVGGRSPVPKTYDMLKAGTTATYEGRWGRGTAQYSSQKSVEERSLRHPLRRLEISPDSSPERAHYTHSDYQYSQRSQAGHTLHHQESRRAALLVPPRYARSEIVGVSRAGTTSRQRHFDTYHRQYQHGSVSDTVFDSIPANPALLTYPRPGTSRSMGNLLEKENYLTAGLTVGQVRPLVPLQPVTQNRASRSSWHQSSFHSTRTLREAGPSVAVDSSGRRAHLTVGQAAAGGSGNLLTERSTFTDSQLGNADMEMTLERAVSMLEADHMLPSRISAAATFIQHECFQKSEARKRVNQLRGILKLLQLLKVQNEDVQRAVCGALRNLVFEDNDNKLEVAELNGVPRLLQVLKQTRDLETKKQITDHTVNLRSRNGWPGAVAHACNPSTLGGQGGRITRSGVRDQPDQHGLLWNLSSNDKLKNLMITEALLTLTENIIIPFSGWPEGDYPKANGLLDFDIFYNVTGCLRNMSSAGADGRKAMRRCDGLIDSLVHYVRGTIADYQPDDKATENCVCILHNLSYQLEAELPEKYSQNIYIQNRNIQTDNNKSIGCFGSRSRKVKEQYQDVPMPEEKSNPKGVEWLWHSIVIRMYLSLIAKSVRNYTQEASLGALQNLTAGSGPMPTSVAQTVVQKESGLQHTRKMLHVGDPSVKKTAISLLRNLSRNLSLQNEIAKETLPDLVSIIPDTVPSTDLLIETTASACYTLNNIIQNSYQNARDLLNTGGIQKIMAISAGDAYASNKASKAASVLLYSLWAHTELHHAYKKAQFKKTDFVNSRTAKAYHSLKD
# Molecular target: protein myozap (UniProt P0CAP1)
# Assay: co-IP; immunoprecipitation experiments on myozap; source of the material not told
row,Molecule,binding
1,desmoplakin (from UniProt P15924 1-2871),binds
2,protein ZO-1 (from UniProt Q07157 1-1748),binds
3,B1,binds
